Earlier results, collected in article PMC10790361, “Membrane Partitioning of TEMPO Discriminates Human Lung Cancer from Neighboring Normal Cells” (Acta Naturae, 2023).
Read-outs that look alike come from different tables or passages of the source.

Tested on: HCT116 cell lines
Parameters: method as in PMID 9607601
Settings: read-out: IC50 of doxorubicin, cited from earlier work

COc1cccc2c1C(=O)c1c(O)c3c(c(O)c1C2=O)C[C@@](O)(C(=O)CO)C[C@@H]3O[C@H]1C[C@H](N)[C@H](O)[C@H](C)O1 [doxorubicin]
IC50 (HCT116, pretreatment with TEMPOL): 53 µM
IC50 (HCT116, without TEMPOL pretreatment): 380 µM
